Data as given in publication PMC8517123, “Functional Interaction Between Caveolin 1 and LRRC8-Mediated Volume-Regulated Anion Channel” (Frontiers in Physiology, 2021).
These are yes or no findings as the source states them, for the method shown. In cells and extracts the contact can be indirect. Some results given as binding are weak or reduced against the parent protein; the word gives no strength.

Chains of the proteins cited; added tags and fusions are not shown.
UniProt Q8IWT6: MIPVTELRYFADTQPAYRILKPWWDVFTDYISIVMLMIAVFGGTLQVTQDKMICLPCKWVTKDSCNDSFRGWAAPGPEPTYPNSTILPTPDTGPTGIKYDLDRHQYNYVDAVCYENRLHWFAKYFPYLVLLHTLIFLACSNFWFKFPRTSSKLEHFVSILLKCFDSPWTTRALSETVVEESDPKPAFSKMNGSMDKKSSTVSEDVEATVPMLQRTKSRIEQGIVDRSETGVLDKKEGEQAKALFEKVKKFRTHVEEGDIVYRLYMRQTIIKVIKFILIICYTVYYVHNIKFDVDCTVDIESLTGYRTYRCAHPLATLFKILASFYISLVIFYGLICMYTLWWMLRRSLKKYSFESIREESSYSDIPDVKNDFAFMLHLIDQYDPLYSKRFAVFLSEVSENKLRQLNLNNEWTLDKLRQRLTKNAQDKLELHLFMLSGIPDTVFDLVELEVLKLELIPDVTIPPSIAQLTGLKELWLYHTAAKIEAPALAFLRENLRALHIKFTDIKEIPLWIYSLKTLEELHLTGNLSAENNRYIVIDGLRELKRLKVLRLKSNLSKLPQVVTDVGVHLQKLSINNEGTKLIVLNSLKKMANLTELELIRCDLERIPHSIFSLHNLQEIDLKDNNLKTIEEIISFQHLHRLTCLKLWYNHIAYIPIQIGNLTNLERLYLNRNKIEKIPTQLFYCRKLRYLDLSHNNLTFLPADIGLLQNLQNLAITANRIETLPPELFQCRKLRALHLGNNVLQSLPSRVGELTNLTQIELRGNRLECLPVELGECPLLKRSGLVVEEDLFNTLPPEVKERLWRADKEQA

Target: Leucine-rich repeat-containing 8A (human (endogenous in HEK 293)) (UniProt Q8IWT6)
Experiment: co-IP; endogenous proteins; HEK 293 cells exposed to isotonic (300 mOsm/Kg) or hypotonic (255 mOsm/Kg) solution for 7 min at 37°C; lysis in 1% Triton X-100; 100-500 μg protein with 2-4 μg anti-Cav1 or anti-LRRC8A antibody at 4°C overnight, protein A sepharose; western blot

binding: binds
B1: Caveolin 1 (natural protein, human (endogenous in HEK 293), UniProt Q03135 1-178, looked up)
chain: MSGGKYVDSEGHLYTVPIREQGNIYKPNNKAMADELSEKQVYDAHTKEIDLVNRDPKHLNDDVVKIDFEDVIAEPEGTHSFDGIWKASFTTFTVTKYWFYRLLSALFGIPMALIWGIYFAILSFLHIWAVVPCIKSFLIEIQCISRVYSIYVHTVCDPLFEAVGKIFSNVRINLQKEI
notes: Caveolin 1, endogenous in HEK 293 cells; also called Cav1; source: endogenous, HEK 293 lysate (1% Triton X-100)
